# In US20100261877A1 (priority 2009, published 2010):
# Assay: peptide synthesis
# Conditions: area normalization
substance,measurement,setting,value
linaclotide,final HPLC purity,purification step,97.0%
same,final HPLC purity,whole synthesis,97.4%
